# Assay results: patent US8574585B2, “KDR peptides and vaccines comprising the same” (Oncotherapy Science, Inc., priority 2002, dated 2013)
# Part of at least one peptide drawing is inferred or uncertain, most often the ends. Some entries repeat one wording, which the source may state once for all of them. Where no end group is shown, it is not given here.
# Experiments:
# [1] = test system: peptide-pulsed TISI cells (HLA-A24/24); test: CTL lines induced with peptide-pulsed DCs, four-hour 51Cr release assay; assay type: cell-based, human; conditions: in words
# Description: Epstein-Barr virus (EBV)-immortalized B cell lines, TISI (HLA-A24/24) and EHM (HLA-A3/3), were provided by Takara Shuzo Biotechnology Research Laboratory.
# HLA serotyping was performed using 7 mL of peripheral blood collected from a healthy subject. Peripheral blood mononuclear lymphocytes (PBMCs) were isolated from HLA-A24-positive peripheral blood using Ficoll Paque (Pharmacia) specific gravity centrifugation.
# The obtained PBMCs were left to stand for ten hours in a culture flask (Corning, 43072). After removing the suspended cells, the cells that adhered to the flask were cultured in AIM-V medium (Invitrogen) supplemented with 2% autoserum by adding 1,000 U/mL of human GM-CSF (provided by Kirin Brewery), and 1,000 U/mL of human IL-4 (Genzyme). Five days later, the cells were cultured for another 48 hours in 10 μg/mL of OK-432 (provided by Chugai Pharmaceutical Co., Ltd.), and were used as antigen-presenting cells for CTL induction.
# The resulting DCs were mixed with CD8-positive cells selected by magnetic beads (Dynabeads M-450 and Detachabeads) from PBMC, at a ratio of 1:20 or 1:2, and then cultured in a 48-well plate (Corning), in the presence of 10 ng/mL of human IL-7 (Genzyme). Three days later, the final concentration of 10 U/mL of IL-2 (Sigma) was added to the culture. And seven and 14 days later, the same DCs were stimulated to induce CTLs, and 20 days later, cytotoxicity was measured for each well using peptide-pulsed TISI cells as targets. Only the positive wells were cultured by a stimulation method with allo-PBMC, EBV-immortalized B cell lines (EHM), and 30 ng/mL of anti-CD3 antibody. CTLs were functionally analyzed 14 days later.
# Cytotoxic activity was evaluated by a four-hour ^51Cr release assay. A concentration of 20 μg/mL of the target cells were pulsed with peptides overnight. The target cells were labeled with 100 μCi of Na2^51CrO4 at 37° C. for one hour, and then washed three times with RPMI1640. The target cells (1×10^4/100 μL) and 100 μL of effector cells at various concentrations with a total volume of 200 μL were placed into a U-shaped 96-well microtiter plate (Corning), and cultured at 37° C. in a CO2 incubator for four hours. After culturing, 100 μL of supernatant was collected from each well, and measured using a γ counter. Natural decay was the radioactivity of the target cells and the medium, and maximum decay was the radioactivity of the target cells and 1 M HCl. Cytotoxic activity (percentage of specific lysis) was calculated by the following formula: Cytotoxic activity (% Cytotoxicity)=(Experimental decay−natural decay)/(maximum decay−natural decay)×100
# [2] = test system: cytotoxic T cells (CTL); test: Examination of CTL inducibility of peptides (summary); assay type: cell-based; conditions: in words
# Description: However, it is necessary to determine whether the candidate peptides, which are selected using high binding affinity as an indicator, actually have CTL inducibility or not. Confirmation of CTL inducibility is carried out by inducing antigen-presenting cells comprising human MHC antigens (such as B-lymphocytes, macrophages, and dendritic cells), more specifically dendritic cells derived from human peripheral blood mononuclear leukocytes; stimulating the cells with the peptides; mixing the cells with CD8-positive cells; and then measuring cytotoxicity against the target cells. As the reaction system, transgenic animals generated to express a human HLA antigen may be used (for example, those described in Hum. Immunol. 2000 August; 61(8):764-79 Related Articles, Books, Linkout Induction of CTL response by a minimal epitope vaccine in HLA A*0201/DR1 transgenic mice: dependence on HLA class II restricted T(H) response, BenMohamed, L., Krishnan, R., Longmate, J., Auge, C., Low, L., Primus, J., and Diamond, D. J.). For example, by radiolabeling the target cells with ^51Cr or such, cytotoxicity can be calculated from the radioactivity released from the target cells. Alternatively, the activity can be examined by measuring the IFN-γ produced and released by CTL in the presence of antigen-presenting cells that have immobilized peptides, and visualizing the inhibition zone on the media using anti-IFN-γ monoclonal antibodies.
# Furthermore, nonapeptides selected from peptides comprising the amino acid sequences of […] (SEQ ID NO:2), […]
# [3] = test system: PBMC of cancer patients; test: Cancer patient-derived CTL precursor, IFN-γ production of peptide-stimulated PBMC; assay type: cell-based, human; conditions: for POSITIVE WELLS, PATIENT D: HLA-A02-type colon cancer patient
# Description: Using the method reported by Maeda, Y. et al., Br. J. Cancer, 87:796-804 (2002), peptide-specific CTLs were detected in PBMC. First, PBMC collected from patients (1×10^5 cells) were incubated with 10 μM of each peptide in a U-shaped bottom 96-well plate comprising 200 μL medium. The medium consisted of 45% RPMI1640 medium, 45% AIM-V medium, 10% FBS, 100 U/mL interleukin-2 (IL-2), and […] MEM non-essential amino acid solution. Every three days, half of the medium was removed and replaced with fresh medium containing the corresponding peptide (20 μM). After incubation for twelve days, cells were collected to test IFN-γ production ability in response to each peptide. When the amount of IFN-γ produced by peptide-stimulated PBMC in response to a corresponding peptide was two times or more than the amount produced in response to the control HIV peptide, that test peptide was deemed positive.
# In the table, patients A, B, and C are HLA-A24-type patients; and patient D is an HLA-A02-type patient. Patients A and D are colon cancer patients; and patients B and C are melanoma patients. CMVs refer to the cytomegalovirus-derived peptides used as positive controls. The peptides with high A-24 binding affinity are described in Kuzushima, K. et al., Blood 2001, 98(6):p 1872-1881, and such; and the peptides with high A-2 binding affinity are described in Solache, A. et al., J. Immunol. 1999, 163(10); p 5512-5518, and such.
# [4] = test system: transgenic mice that express human HLA (A0201); test: IFN-γ ELISPOT of splenocytes from peptide-vaccinated A2/Kb transgenic mice; assay type: in vivo, mouse; conditions: for epitope peptide obtained by IFN-γ ELISPOT assay: HLA-A*0201, in words; for ELISPOT ANALYSIS ×40 (SFC) MOUSE1 pep(+) / ELISPOT ANALYSIS ×40 (SFC) MOUSE1 pep(−): mouse 1; for ELISPOT ANALYSIS ×40 (SFC) MOUSE1 pep(+) / ELISPOT ANALYSIS ×40 (SFC) MOUSE2 pep(+): peptide-pulsed T2 cells; for ELISPOT ANALYSIS ×40 (SFC) MOUSE1 pep(−) / ELISPOT ANALYSIS ×40 (SFC) MOUSE2 pep(−): unpulsed T2 cells; for ELISPOT ANALYSIS ×40 (SFC) MOUSE2 pep(+) / ELISPOT ANALYSIS ×40 (SFC) MOUSE2 pep(−): mouse 2
# Description: Six- to eight-week old BALB/C(H-2^d) mice were obtained from CLEA Japan. A2/Kb transgenic mice (TGM) were provided by F. Jim Primus, Ph.D. at Vanderbilt-Ingram Cancer Center. T2 cells (TAP-deficient and HLA-A*0201-positive cells) were provided by Prof. H. Shiku at Mie University's Third Department of Internal Medicine. […]
# Next, 100 μg of each peptide, 140 μg of HbcAg120-140 helper peptide, and 100 μL of IFA were mixed (200 μL in total). The mixture was administered subcutaneously to the right abdomen on day 0, and to the left abdomen on day 11. The spleens of the vaccinated mice were collected on day 21, erythrocytes were hemolytically removed using red lysis buffer (Sigma), and a portion of those cells were used as responder cells for IFN-γ ELISPOT assay. The remaining cells were placed into a 24-well plate (Corning) at 6×10^6 cells/well with feeder cells at a ratio of 3:1, and stimulated again. Their cytotoxicity was measured five days later. Erythrocyte-free splenocytes, which were derived from syngeneic mice, were cultured for three days in the presence of 25 μg/mL of lipopolysaccharide (LPS) to use as feeder cells.
# In this Example, the IFN-γ ELISPOT method was used to evaluate CTL inducibility according to SPOTs produced by IFN-γ producing cells. Flat-bottomed 96-well multiscreen plate MAHA S45 (Millipore) was treated at 4° C. overnight with anti-mouse IFN-γ monoclonal antibody (Pharmingen). On the following day, the plate washed with PBS containing 0.05% Tween 20, and then reacted with a blocking buffer at room temperature for two hours. Thereafter, peptide-pulsed T2 cells and unpulsed T2 cells were added to each well at 10^5 cells/100 μL. The splenocytes of vaccinated mice were further added to each well at a maximum of 4×10^6 cells/100 μL (200 μL in total), and cultured overnight at 37° C. The next day, each well was washed, and reacted for two hours with biotinylated rat anti-mouse IFN-γ antibodies (Pharmingen). After washing the plate thoroughly, Extravidin was added to each well and reacted at room temperature for two hours. After washing, alkaline phosphatase conjugate substrate (BIO-RAD) was added to the wells, which were left to stand at room temperature for five minutes. The blue spots resulting from IFN-γ production were measured using KS ELISPOT compact release (Carl Zeiss).
# Specific blue spots were determined as: Specific blue spot=(TISI(+)SPOT−TISI(−)SPOT) Those satisfying the following condition were considered effective: TISI(+)SPOT/TISI(−)SPOT≧2
# [5] = test system: B16 cell-induced angiogenic response in A2/Kb TGM; test: Dorsal air sac (DAS) assay, B16 melanoma cells; assay type: in vivo, mouse; conditions: for ANGIOGENESIS INDEX (AI): DC pulsed with the peptide, vaccinated twice, AI 0 to 5; for formation of tortuous blood vessels: peptide-pulsed DC compared to DC alone, in words
# Description: The actual angiogenesis-inhibiting activity of peptide epitopes was evaluated in mice using a DAS assay (see, Clinical Cancer Research, Vol. 5, 2185-2191, August 1999; Cancer Research 62, 6116-6123, Nov. 1, 2002).
# Specifically, a membrane filter was fixed to both sides of a chamber ring, and sterilized with ethylene oxide gas. B16 melanoma cells were prepared to 5×10^5 cells/0.15 mL, and injected into the chamber. Mice (A2/kb transgenic mice ([…])) were immobilized face down, and an air sac was produced by injecting 5 to 10 mL of air in to the murine dorsal hypoderm using a syringe. An approximately 1-cm incision was made to the lower part of the sac. The chamber ring, filled with cell suspension solution, was implanted in the dorsal hypoderm, and the skin was closed using a skin stapler. Six days after implantation, the mouse skin was decorticated together with the chamber, fixed in an extended form, and marked with a black rubber ring to observe the newly formed blood vessels using a microscope. Blood vessels that are newly formed by angiogenic factors released from malignant tumor cells characteristically run in a zigzag manner, and are morphologically different from naturally occurring background blood vessels. Therefore, blood vessels of 3-mm or longer within the rubber ring and running in a zigzag manner were determined to be newly formed blood vessels, and were evaluated using an angiogenesis index (AI). AIs was evaluated into six levels, from 0 to 5 according to the number of tortuous blood vessels. All those with five or more tortuous blood vessels were determined to be 5.
# Vaccination was performed 14 days prior to chamber implantation, and repeated after one week (a total of two times) by respectively injecting 5×10^4 cells of HBSS, DC alone, or peptide-pulsed DC, to the tail vein. The results are shown in FIG. 17 and in Table 8, as shown below.
Sequence,effectiveness as epitope peptide (CTL line established) [1],CTL inducibility [2],"POSITIVE WELLS, PATIENT A ([3]; HLA-A24-type colon cancer patient, IFN-γ two times or more than HIV control peptide)","POSITIVE WELLS, PATIENT B ([3]; HLA-A24-type melanoma patient)","POSITIVE WELLS, PATIENT C ([3]; HLA-A24-type melanoma patient)",epitope peptide obtained by IFN-γ ELISPOT assay [4],ELISPOT ANALYSIS ×40 (SFC) MOUSE1 pep(+) [4] [SFC],ELISPOT ANALYSIS ×40 (SFC) MOUSE1 pep(−) [4] [SFC],ELISPOT ANALYSIS ×40 (SFC) MOUSE2 pep(+) [4] [SFC],ELISPOT ANALYSIS ×40 (SFC) MOUSE2 pep(−) [4] [SFC],ANGIOGENESIS INDEX (AI) [5],formation of tortuous blood vessels [5],"POSITIVE WELLS, PATIENT D [3]"
VYSSEEAEL [SEQ ID NO:2],effective as epitope peptides,particularly high CTL inducibility,,,,,,,,,,,
DFLTLEHLI [SEQ ID NO:12],effective as epitope peptides,particularly high CTL inducibility,,,,,,,,,,,
GYRIYDVVL [SEQ ID NO:3],,particularly high CTL inducibility,0,3,0,,,,,,,,
AMFFWLLLV [SEQ ID NO:29],,particularly high CTL inducibility,,,,epitope peptides,95,32,322,17,(2.2 ± 0.5),clearly suppressed,2
AVIAMFFWL [SEQ ID NO:33],,particularly high CTL inducibility,,,,epitope peptides,88,19,143,31,(2.8 ± 0.5),clearly suppressed,3
